Results as given in publication PMC7505839.
These are yes or no findings as the source states them, for the method shown. In cells and extracts the contact can be indirect. Some binding calls cover weakened binding; strength is not graded here.

By UniProt entry, the sequences of proteins in these tests, tags left out.
UniProt P62258: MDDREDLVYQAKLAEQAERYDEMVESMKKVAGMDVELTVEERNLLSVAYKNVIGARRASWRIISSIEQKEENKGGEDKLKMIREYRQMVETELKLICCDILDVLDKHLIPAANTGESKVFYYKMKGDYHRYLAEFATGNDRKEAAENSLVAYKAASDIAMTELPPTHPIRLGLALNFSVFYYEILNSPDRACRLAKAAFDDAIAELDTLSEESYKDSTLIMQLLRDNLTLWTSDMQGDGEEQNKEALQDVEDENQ

Molecular target: 14-3-3ε (human (endogenous in HuCCT1)) (UniProt P62258)
Assay: co-IP; HuCCT1 cells pre-treated with 20 μM MG-132 for 2 h, 0.0 μM ATO for 6 h; 100 μg lysate protein incubated with 14-3-3ε antibody at 4 °C overnight, IgA plus IgG sepharose beads, western blot

B1: 14-3-3η (protein, UniProt Q04917 1-246)
chain: MGDREQLLQRARLAEQAERYDDMASAMKAVTELNEPLSNEDRNLLSVAYKNVVGARRSSWRVISSIEQKTMADGNEKKLEKVKAYREKIEKELETVCNDVLSLLDKFLIKNCNDFQYESKVFYLKMKGDYYRYLAEVASGEKKNSVVEASEAAYKEAFEISKEQMQPTHPIRLGLALNFSVFYYEIQNAPEQACLLAKQAFDDAIAELDTLNEDSYKDSTLIMQLLRDNLTLWTSDQQDEEAGEGN
With B1 the binding was “binds”.
